PMC4963535, “Structure-guided development of heterodimer-selective GPCR ligands” (Nature Communications, 2016)
No constants are given. Whether binding was seen depends on the method and setting. In cells and extracts the contact can be indirect. Some entries that bind do so weakly or less than the wild type.

Biological target: neurotensin receptor subtype 1 (NTS1R) (UniProt P30989)
Assay: split reporter; enzyme complementation (DiscoveRx PathHunter): HEK 293 cells stably expressing EA-β-arrestin-2, transfected with a ProLink-tagged receptor with or without untagged NTS1R (cDNA 1:3); 5 h with agonist (quinpirole, NT(8-13), bivalent ligands), chemiluminescence

Question: “EA-tagged β-arrestin-2 fusion protein (from UniProt P32121 1-409)” was tested. Which binding did it give?
Answer: Its binding is “binds”.
